Results published in PubChem BioAssay AID1347426 (Functional Genomics Laboratory (NCATS/FGL), 2020).
Hit rate of the full screen: of about 31,000 sequences, about 1,400 (4.5%) were called active.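 The calls were made as follows: active = median seed-adjusted z-score above 1 or below -1; inactive = the rest.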 Some of the results follow.

experiment: Novel Modifiers of Survival Motor Neuron (SMN) Protein: Gene Identification via Genome-wide siRNA Screen; conditions: HEK293T SMN2-luciferase reporter, siRNA knockdown, 72 h; actives lie on both sides;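 also: luminescence tracks full-length SMN protein made from the SMN2 reporter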
Summary of the method: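 Steps: spot 1 pmol siRNA, add Lipofectamine RNAiMax in serum-free DMEM, seed HEK293T SMN2–luciferase reporter cells; incubate 72 h at 37 °C; add ONE-Glo; normalize luminescence to control siRNA, log10, MAD. Candidates: |MAD| > 1.0.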

| Sequence | median seed-adjusted z-score |
| --- | --- |
| CCUUCAAACCGUUCGAGUATT against MYBPC2 | inactive: 0.18 |
| CACAAGAACAUGUUUCUUATT against CALCR | inactive: -0.404 |
| CACUCUCUGUAAGCAUAUATT against RAD51L3 | inactive: 0.155 |
| GCAAGUUACAGUCCUCCGATT against RRBP1 | inactive: -0.254 |
| GGUUCGGGUUUGUCACGUUTT against MSI1 | inactive: -0.806 |
| GCAGAUUUUCGAAAGUUUUTT against SIRT5 | inactive: 0.39 |
| CGAAUGAUAAGAAAGCGAATT against TIGD1 | inactive: 0.224 |
| GAACCUCUCGAUGACCCUATT against MAML3 | inactive: -0.412 |
| GCACUGUCAAAGACCUGAUTT against PHKG2 | inactive: -0.371 |
| GCCCGGCAUUUGGAUCUAUTT against FLRT3 | inactive: -0.468 |
| GAGAGUACAUUGCACUGUATT against GOLGA2 | inactive: 0.18 |
| CAACCGUGCUGGUUAUCUUTT against GPR101 | inactive: -0.265 |
| GGACCAGUUUAGAAGGAUATT against TDP1 | inactive: -0.352 |
| CCUACUUUCUAACUAUCAATT against HTR2A | inactive: 0.0665 |
| CCCUUCGCGUUGUUGCUCATT against DHRS1 | inactive: 0 |
| GUCAGUACUUUAUCUCGUUTT against XRN1 | inactive: 0.522 |
| GAACUGACAUGGGAAGAUUTT against DUOX1 | active: -1.09 |
| GCGUAGAUGGUGAAUGUCATT against MST1R | inactive: -0.278 |
| CCUUCUACACCUUUCGCUATT against MMP11 | inactive: -0.354 |
| GGCUUAUCCUAUCUUAUAATT against ZNF700 | inactive: 0 |
| CAGAUAGGAUUGUAGGUCATT against THNSL1 | inactive: -0.176 |
| CGAGUACAUUUUACGAGUATT against CXADR | inactive: 0.872 |
| UCAUCCUCUUGAGAAUUAATT against CD6 | inactive: -0.33 |

Two entries from above, as tab-separated lines:
Sequence	median seed-adjusted z-score
GAGAGUACAUUGCACUGUATT against GOLGA2	inactive: 0.18
CAACCGUGCUGGUUAUCUUTT against GPR101	inactive: -0.265

(listing goes on)

| Sequence | median seed-adjusted z-score |
| --- | --- |
| GCUCACGACUAAUUCAACATT against ZNF582 | inactive: -0.421 |
| GAGCAGCAACGACAAGAAATT against HAND2 | inactive: 0.0864 |
| GGUGCUAUGUGAGCUCAUUTT against TAGLN2 | inactive: 0.432 |
| CAUCAAUGCUAUCAUCUUUTT against CCL20 | inactive: -0.204 |
| GAGUCGAGUUUGAUGAAGATT against GSTA4 | inactive: -0.848 |
| ACAUGACCAUGAACACCAUTT against FOXA1 | inactive: 0.279 |
| GCAGUUGAUUCUUACCAGATT against TEAD2 | inactive: 0.96 |
| GGGACACCAUCUUCGCUUUTT against SEMA4F | inactive: 0.139 |
| CGAAGUUUCCUAUAGAGGATT against PCDHGA10 | inactive: 0.0621 |
| GCAUUUUCCUCCGUUGAGATT against ZNF581 | inactive: 0.486 |
| GCCUCAAGAUUGACCUAGATT against STAT3 | inactive: 0 |
| UGAUGAGGAGUAUAUGAAATT against FUT11 | inactive: -0.15 |
| GGACAAGACGCAAGAAGAATT against TEF | inactive: 0 |
| CGCGGUGCAUAUGAAGAUATT against PIGM | active: 1.36 |
| GUUUGAGUGUGACACCUGUTT against ZNF71 | inactive: -0.0193 |
| GCUGAGCUCAGUAACCACATT against LCAT | inactive: 0.526 |
| CCAGGUCUCCGAUGAACUUTT against BCL2L2 | inactive: 0 |
| GCCCAGACCUUAGUAGACATT against ZNF618 | inactive: 0.311 |
| GACUAAUAGCAGAAGGUAATT against PGM2 | inactive: 0.355 |
| AGAUCAGAUUGCAAUUCCATT against SLC23A1 | inactive: 0.904 |
| CCAUGUACGUCAUCCCAUUTT against PCK1 | inactive: -0.401 |
| CUGCUAUUCUGACCCAGAATT against KCNMB2 | inactive: 0 |
| CAGAUACUCCCUUCAGUAATT against SOX30 | inactive: -0.167 |

| Sequence | median seed-adjusted z-score |
| --- | --- |
| CCAGCAGACUGCCUACAAATT against GPR119 | inactive: -0.382 |
| CCUACAAUCUGGAAACCAUTT against SERPINA9 | inactive: 0.497 |
| AGCUCUUUAUGCUUCUUGATT against QPCTL | inactive: -0.422 |
| CCGGGAUAAUUAAUGACCATT against PHOX2A | inactive: 0.466 |
| GGGAGGGCAUCAACAAGAATT against RGS19 | inactive: 0.295 |
| GCAUGAUGUCUGUUACACUTT against DLAT | inactive: 0 |
| CCUCUGUCCUCUACAAGAATT against TRMT5 | inactive: 0 |
| AGAUUGGAUUCACCACAGATT against OGDHL | inactive: -0.0878 |
| AAAACAAAAAUGAUCUACATT against SLC10A1 | inactive: -0.19 |
| CCUGGGAUCUGAGUACAUATT against HMGA1 | inactive: 0.557 |
| CCACAAGUUUGAUUUCGAATT against NLRC4 | inactive: -0.00107 |
| GAUUCGAAAUGGACCAAGATT against FKBP14 | inactive: -0.455 |
| GGUUGUAGAGUUGAAAGUUTT against UBE2O | inactive: 0.125 |
| GUGUAUUACCUGAGAAUCATT against CYP24A1 | inactive: 0.136 |
| GGUGCGAGAUUUACUCAGATT against ALAS2 | inactive: -0.142 |
| GAACUAUAUUCUUCUGUGATT against CDH1 | inactive: -0.24 |
| GGAGUGAUAGUAACACCUUTT against ILF2 | inactive: -0.19 |
| CUACUUGACGAAACCCAGATT against MKI67IP | inactive: 0.426 |
| CCCUCUUCGUCAUGACCAATT against P2RX4 | inactive: 0.467 |
| GGGUGAUACCAUUCAAUGUTT against PPIA | inactive: 0.0169 |
| CCCUGUUGGGUAUAGAUGATT against ATF4 | inactive: 0 |
| AGAAAGUACUGCACAGAGATT against PCDH8 | active: -1.03 |
| GGUGGUUCCUAUCCUGAGATT against SPRR2G | inactive: 0.358 |

3 records picked at random from the list so far, as already listed:

| Sequence | median seed-adjusted z-score |
| --- | --- |
| GUUUGAGUGUGACACCUGUTT against ZNF71 | inactive: -0.0193 |
| CCUACUUUCUAACUAUCAATT against HTR2A | inactive: 0.0665 |
| GAACCUCUCGAUGACCCUATT against MAML3 | inactive: -0.412 |
